Results reported in patent US11661577B2, “Co-incubating confined microbial communities” (CALIFORNIA INSTITUTE OF TECHNOLOGY, priority 2007, dated 2023).
For at least one compound, name, drawing or mass did not settle the structure.

Test system: Methicillin Resistant S. aureus (MRSA, ATCC# 43300)
Test: Plug-based microfluidic antibiotic susceptibility screen (stochastic confinement, alamarBlue viability indicator)
Type: cell-based, Staphylococcus aureus
Settings: breakpoint concentration; 4 nL plugs; 4×10^5 CFU/mL; 7 h at 37° C.

C[C@H]1COc2c(N3CCN(C)CC3)c(F)cc3c(=O)c(C(=O)O)cn1c23 [LVF, levofloxacin]
Susceptibility of MRSA to antibiotic (increase in fluorescence intensity of plugs versus 3 times the VCM baseline): sensitive
